Paper PMC12722469

Tested on: MBP-OUR1/OsbZIP1-DB (Oryza sativa)
Assay: EMSA
Conditions: 0.4-0.8 uM protein, 25.3 nM probe, PBS(-), 1 mM 2-mercaptoethanol, 4 C 30 min, pH not stated, recombinant protein, protein details: MBP (pMAL-c2), label: Cy5 on reverse strand (5' of Klenow primer S87)

Sequence | binding result (binding markedly reduced, 6% PAGE in 0.5x TBE at 4 C) | binding result (clear shifts at 0.6 and 0.8 uM protein, 6% PAGE in 0.5x TBE at …)
CTTGGCCGCTAGCTACGGAAGCGTAACATGGACATGACGTTCATCGTCGTAACACTGTAC (double strand) [OsPIN9-OUR1cis_mutated] | binds more weakly | 
CTTGGCCGCTAGCTACGGAAGCGTACACGTTCACGTACGTTCATCGTCGTAACACTGTAC (double strand) [OsPIN9-OUR1cis] |  | binds

Construct, isoform or probe ends are uncertain for at least one entry. The comparison behind a weaker result is the experiment's own reference, which may not be listed here.
